# Laboratory results from the supplement of paper PMC10331698.
# ± gives the standard deviation of the averaged measurements. Small differences around the control level are noise.
# Experiments:
# Experiment in all cases: level (log10 ratio to DMSO vehicle control); higher = higher biomarker level / cell amount than vehicle control
# [1] = compound: C=C(C)C(=O)OCC(F)(F)C(F)(F)C(F)(F)F [2,2,3,3,4,4,4-Heptafluorobutyl methacrylate]; conditions: 2200 nM; in DMSO
# Description: (§1)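 BioMAP Diversity Plus panel of 12 human primary cell co-culture systems (3C, 4H, LPS, SAg, BT, BF4T, BE3C, CASM3C, HDF3CGF, KF3CT, MyoF, Mphg). Compounds were added 1 h before stimulation and left for 24 h (MyoF 48 h; BT 72 h for soluble read-outs or 6 d for IgG). Biomarkers were read by ELISA, cytotoxicity by SRB, PBMC viability and proliferation by Alamar Blue. Each well value was divided by the mean of 8 DMSO control wells on the same plate and log10 transformed; duplicate blinded samples were tested at 4 concentrations.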
# [2] = compound: C=CC(=O)OCC(F)(F)C(F)(F)C(F)(F)C(F)(F)COC(=O)C=C [1H,1H,6H,6H-Perfluorohexane-1,6-diol diacrylate]; conditions: 2200 nM; in DMSO
# Description: as §1
# [3] = compound: FC(F)(F)C(F)(F)C(F)(F)C(F)(F)C(F)(F)C(F)(F)C(F)(F)CCI [1-Iodo-1H,1H,2H,2H-perfluorononane]; conditions: in DMSO
# Description: as §1
# [4] = compound: FC(F)(F)C(F)(F)C(F)(F)C(F)(F)C(F)(F)C(F)(F)C(F)(F)I [1-Iodopentadecafluoroheptane]; conditions: in DMSO
# Description: as §1
# [5] = compound: FC(F)C(F)(F)COCC1CO1 [((2,2,3,3-Tetrafluoropropoxy)methyl)oxirane]; conditions: 2200 nM; in DMSO
# Description: as §1
# [6] = compound: NC(=O)C(F)(F)C(F)(F)C(F)(F)C(F)(F)C(F)(F)C(F)(F)C(F)(F)F [Perfluorooctanamide]; conditions: 2200 nM; in DMSO
# Description: as §1
# [7] = compound: O=C(O)C(F)(F)C(F)(F)C(F)(F)C(F)(F)C(F)(F)C(F)(F)C(F)(F)C(F)(F)C(F)(F)C(F)(F)F [Perfluoroundecanoic acid]; conditions: in DMSO
# Description: as §1
# [8] = compound: O=C(O)C(F)(F)C(F)(F)C(F)(F)C(F)(F)C(F)(F)C(F)(F)C(F)(F)C(F)F [9-H-Perfluorononanoic acid]; conditions: 2200 nM; in DMSO
# Description: as §1
# [9] = compound: O=C(O)C(F)(F)C(F)(F)C(F)(F)F [Perfluorobutanoic acid]; conditions: 2200 nM; in DMSO
# Description: as §1
# [10] = compound: O=C(O)C(F)(F)C(F)(F)F [Perfluoropropanoic acid]; conditions: 2200 nM; in DMSO
# Description: as §1
# [11] = compound: O=C(O)C(F)(F)C(F)(F)OC(F)(F)F [Perfluoro-3-methoxypropanoic acid]; conditions: 2200 nM; in DMSO
# Description: as §1
# [12] = compound: O=C(O)C(F)(F)OC(F)(F)C(F)(F)OC(F)(F)C(=O)O [Perfluoro-3,6-dioxaoctane-1,8-dioic acid]; conditions: 2200 nM; in DMSO
# Description: as §1
# [13] = compound: O=C(O)C(F)(F)OC(F)(F)C(F)(F)OC(F)(F)C(F)(F)C(F)(F)C(F)(F)F [Perfluoro-3,6-dioxadecanoic acid]; conditions: 2200 nM; in DMSO
# Description: as §1
# [14] = compound: O=C(O)C=CC(F)(C(F)(F)F)C(F)(F)F [3-(Perfluoroisopropyl)-2-propenoic acid]; conditions: in DMSO
# Description: as §1
# [15] = compound: O=P(O)(O)CCC(F)(F)C(F)(F)C(F)(F)C(F)(F)C(F)(F)C(F)(F)C(F)(F)C(F)(F)F [((Perfluorooctyl)ethyl)phosphonic acid]; conditions: 2200 nM; in DMSO
# Description: as §1
# [16] = compound: O=S(=O)(Cl)C(F)(F)C(F)(F)C(F)(F)C(F)(F)C(F)(F)C(F)(F)C(F)(F)C(F)(F)F [Perfluoro-1-octanesulfonyl chloride]; conditions: 2200 nM; in DMSO
# Description: as §1
# [17] = compound: OCC(F)(F)C(F)(F)C(F)(F)C(F)(F)C(F)(F)C(F)(F)C(F)(F)C(F)(F)C(F)(F)C(F)(F)C(F)(F)F [11:1 Fluorotelomer alcohol]; conditions: in DMSO
# Description: as §1
# [18] = compound: OCCC(F)(F)C(F)(F)C(F)(F)C(F)(F)C(F)(F)C(F)(F)C(F)(F)C(F)(F)F [8:2 Fluorotelomer alcohol]; conditions: 2200 nM; in DMSO
# Description: as §1
Test System,level (log10) [1],level (log10) [2],level (log10) ([3]; 740 nM),level (log10) ([3]; 2200 nM),level (log10) ([3]; 6700 nM),level (log10) ([3]; 20000 nM),level (log10) ([4]; 740 nM),level (log10) ([4]; 2200 nM),level (log10) ([4]; 6700 nM),level (log10) ([4]; 20000 nM),level (log10) [5],level (log10) [6],level (log10) ([7]; 740 nM),level (log10) ([7]; 2200 nM),level (log10) [8],level (log10) [9],level (log10) [10],level (log10) [11],level (log10) [12],level (log10) [13],level (log10) ([14]; 2200 nM),level (log10) ([14]; 6700 nM),level (log10) ([14]; 20000 nM),level (log10) ([14]; 60000 nM),level (log10) [15],level (log10) [16],level (log10) ([17]; 370 nM),level (log10) ([17]; 1100 nM),level (log10) ([17]; 3300 nM),level (log10) ([17]; 10000 nM),level (log10) [18]
LPS:sTNF-alpha,0.0305 ± 0.025,0.0465 ± 0.0064,-0.0025 ± 0.0064,0.0065 ± 0.005,0.0075 ± 0.0035,0.0035 ± 0.0021,-0.0045 ± 0.098,0.034 ± 0.0057,0.0115 ± 0.018,0.0025 ± 0.0092,0.0055 ± 0.028,-0.038 ± 0.045,0.0405 ± 0.022,0.021 ± 0.0085,-0.0085 ± 0.023,0.018 ± 0.024,0.0175 ± 0.013,0.014 ± 0.083,0.0205 ± 0.087,0.026 ± 0.013,0.044 ± 0.086,0.003 ± 0.1,0.0345 ± 0.057,0.0395 ± 0.03,0.038 ± 0.035,-0.0225 ± 0.047,0.033 ± 0.0057,0.0075 ± 0.012,-0.0485 ± 0.013,-0.105 ± 0.08,0.0015 ± 0.056
BF4T:MMP-9,0.0015 ± 0.035,0.014 ± 0.024,-0.012 ± 0.017,-0.0045 ± 0.052,0.007 ± 0.044,-0.0065 ± 0.028,0.009 ± 0.048,-0.0335 ± 0.0064,-0.0345 ± 0.063,-0.019 ± 0.013,0.006 ± 0.025,0.003 ± 0.027,-0.012 ± 0.03,-0.0445 ± 0.022,-0.016 ± 0.037,0.027 ± 0.048,-0.019 ± 0.03,-0.0075 ± 0.035,0.0005 ± 0.023,-0.017 ± 0.016,0.001 ± 0.057,0.0015 ± 0.029,0.004 ± 0.0099,0.025 ± 0.04,0.017 ± 0.037,-0.0005 ± 0.022,-0.028 ± 0.044,-0.025 ± 0.03,-0.02 ± 0.0071,-0.03 ± 0.0057,-0.0105 ± 0.018
lMphg:CD106/VCAM-1,0.0075 ± 0.0021,-0.01 ± 0.031,-0.038 ± 0.0071,-0.0125 ± 0.0064,-0.009 ± 0.04,-0.039 ± 0.075,0.005 ± 0.0014,-0.0095 ± 0.0035,-0.0025 ± 0.0064,-0.007 ± 0.017,-0.0175 ± 0.012,-0.0115 ± 0.0078,0.019 ± 0.0085,0.0015 ± 0.0064,-0.0325 ± 0.044,0.001 ± 0.035,0.0005 ± 0.00071,0.007 ± 0.0099,0.008 ± 0.02,-0.011 ± 0.0014,-0.015 ± 0.0085,0.001 ± 0.024,0.0125 ± 0.005,0.002 ± 0.034,-0.008 ± 0.016,-0.002 ± 0.02,0.0085 ± 0.016,0.0045 ± 0.005,-0.001 ± 0.0014,-0.0015 ± 0.0035,-0.0035 ± 0.0021
4H:CD62P/P-selectin,0.074 ± 0.0099,-0.0145 ± 0.0035,0.019,0.017 ± 0.013,0.0005 ± 0.037,-0.0185 ± 0.06,-0.018 ± 0.018,0.038 ± 0.065,0.0125 ± 0.021,0.0035 ± 0.022,-0.0025 ± 0.047,-0.0295 ± 0.043,0 ± 0.033,0.014 ± 0.035,0.047 ± 0.079,0.0225 ± 0.044,-0.0405 ± 0.023,-0.008 ± 0.018,0.013 ± 0.0042,0.0095 ± 0.071,-0.0155 ± 0.0078,-0.001 ± 0.02,-0.0105 ± 0.012,0.023 ± 0.0085,-0.0275 ± 0.0035,0.012 ± 0.0057,-0.031 ± 0.0042,-0.111 ± 0.042,-0.095 ± 0.079,-0.139 ± 0.13,-0.014 ± 0.0085
CASM3C:SRB,0.01 ± 0.0042,-0.0025 ± 0.0035,0.004 ± 0.0071,0.0065 ± 0.016,-0.0025 ± 0.0021,-0.0015 ± 0.0064,-0.001 ± 0.013,-0.0015 ± 0.00071,-0.0025 ± 0.0092,0.007,0.0075 ± 0.0035,-0.003 ± 0.014,0.005 ± 0.0042,0.0005 ± 0.00071,-0.006 ± 0.0014,-0.004 ± 0.0085,0.008 ± 0.0042,0.0205 ± 0.029,0.0055 ± 0.022,-0.001 ± 0.0057,0.0045 ± 0.0078,0.006 ± 0.0042,-0.011 ± 0.0042,-0.003 ± 0.0028,0.0005 ± 0.012,0.0005 ± 0.023,0.0065 ± 0.00071,0.0075 ± 0.005,0.0095 ± 0.0064,0.008 ± 0.0071,0.0115 ± 0.005
CASM3C:CCL2/MCP-1,-0.0015 ± 0.059,-0.0085 ± 0.0035,0.015 ± 0.023,-0.0005 ± 0.0021,0.003 ± 0.0099,0.02 ± 0.018,0.006 ± 0.027,-0.0055 ± 0.0092,-0.01 ± 0.0042,0.005 ± 0.018,0.027 ± 0.02,0,0.001 ± 0.021,0.0065 ± 0.0092,0.008 ± 0.021,-0.0245 ± 0.0021,0.001 ± 0.0014,0.0295 ± 0.077,0.0275 ± 0.066,0.0255 ± 0.047,0.026 ± 0.067,0.007 ± 0.017,-0.0055 ± 0.011,0.023 ± 0.044,0.0185 ± 0.053,-0.01 ± 0.037,-0.007 ± 0.0042,-0.01 ± 0.024,-0.0055 ± 0.012,0.012 ± 0.025,0.005 ± 0.045
BE3C:CXCL8/IL-8,0.0185 ± 0.1,-0.0085 ± 0.0021,0.075 ± 0.0085,0.0205 ± 0.077,0.018 ± 0.11,0.0505 ± 0.12,0.0085 ± 0.052,-0.005 ± 0.014,-0.0175 ± 0.0078,-0.007 ± 0.0057,0.003 ± 0.0028,0.0015 ± 0.021,0.0365 ± 0.076,0.0065 ± 0.042,0.0515 ± 0.083,0.0205 ± 0.04,0.0135 ± 0.025,0.0115 ± 0.023,-0.019 ± 0.018,-0.0055 ± 0.022,0.013 ± 0.09,-0.0015 ± 0.035,0.003 ± 0.0057,0.0545 ± 0.059,0.075 ± 0.062,0.023 ± 0.016,-0.0385 ± 0.03,-0.086 ± 0.011,-0.158 ± 0.055,-0.0975 ± 0.042,-0.0055 ± 0.039
